For experiment [1], the target named is T1, Neurokinin 3 receptor, cryo-EM construct: BRIL-NK3R(1-394)-LgBiT (human) (UniProt P29371).
T1 sequence: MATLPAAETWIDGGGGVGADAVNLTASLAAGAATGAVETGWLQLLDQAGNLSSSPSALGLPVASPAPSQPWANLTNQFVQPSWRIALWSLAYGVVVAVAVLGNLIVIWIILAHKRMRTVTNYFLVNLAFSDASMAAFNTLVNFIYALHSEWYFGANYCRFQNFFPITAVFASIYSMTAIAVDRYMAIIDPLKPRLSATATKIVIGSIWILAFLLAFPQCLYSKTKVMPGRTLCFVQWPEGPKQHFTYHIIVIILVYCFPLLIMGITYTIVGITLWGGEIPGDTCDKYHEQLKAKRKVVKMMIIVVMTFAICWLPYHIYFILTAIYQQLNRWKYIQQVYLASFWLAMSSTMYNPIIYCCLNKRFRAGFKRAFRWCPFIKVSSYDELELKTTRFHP
Description: cryo-EM structure; NK3R–Gq/SP complex, 2.9 Å; 10 μM peptide present from cell lysis on, 20 μg/mL purified Nb35 added to the membranes; complex purified on dextrin resin, TEV, Superdex 200 with 20 μM peptide in LMNG/GDN/CHS, HEPES pH 7.4, 100 mM NaCl; only the binder purified.

Amino acid sequences for entries named in this document (tags omitted). A change or cut given only in a name is not applied to a line headed by its entry.
UniProt P20366: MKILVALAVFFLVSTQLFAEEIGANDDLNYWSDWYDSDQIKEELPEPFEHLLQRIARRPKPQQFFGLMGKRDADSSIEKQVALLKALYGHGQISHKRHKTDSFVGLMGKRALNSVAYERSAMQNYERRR
UniProt Q9UHF0: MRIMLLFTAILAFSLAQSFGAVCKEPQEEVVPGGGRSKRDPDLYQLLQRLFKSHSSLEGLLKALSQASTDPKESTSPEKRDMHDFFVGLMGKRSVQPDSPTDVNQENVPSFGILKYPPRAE

The target of another experiment is T2, NK3R-L232mtfF (human) (UniProt P29371).
T2 sequence (chain, 3'-trifluoromethyl-phenylalanine (mtfF) at 232): T1 sequence with L232F
As to the kind of experiment: 1D 19F NMR; NK3R-L232mtfF purified in LMNG/GDN/CHS with 10 μM peptide (SP/NKB/senktide) present from cell lysis on; spectra at 298 K compared with the apo state; only the binder purified.

Experiment [2] has as its target T1, Neurokinin 3 receptor, cryo-EM construct: BRIL-NK3R(1-394)-LgBiT (human). Description: cryo-EM structure; NK3R–Gq/NKB complex, 2.8 Å; 10 μM peptide present from cell lysis on, 20 μg/mL purified Nb35 added to the membranes; complex purified on dextrin resin, TEV, Superdex 200 with 20 μM peptide in LMNG/GDN/CHS, HEPES pH 7.4, 100 mM NaCl; only the binder purified.

Substitutions are numbered along the chain they refer to. These are yes or no findings as the source states them, for the method shown. Some entries that bind do so weakly or less than the wild type.

B1: substance P (peptide, UniProt P20366 58-68)
peptide: RPKPQQFFGLM
modifications: C-terminal amide
For B1, the binding entry (in experiment [1]; in the experiment with NK3R-L232mtfF (human)) was “binds” throughout.

B2: neurokinin B (peptide, UniProt Q9UHF0 81-90)
peptide: DMHDFFVGLM
modifications: C-terminal amide
In the case of B2, the binding result (in the experiment with NK3R-L232mtfF (human); in experiment [2]) was “binds” each time.

For the origin of these results see publication PMC10313662, “Structural insights into neurokinin 3 receptor activation by endogenous and analogue peptide agonists” (Cell Discovery, 2023).
